In US6974814B2, “Neuropharmacological treatment of sleep-related breathing disorders” (The Board of Trustees of the University of Illinois, priority 1999, dated 2005):

Tested on: spontaneous apneas
Details: REM sleep; 4.0 mg/kg intraperitoneal; vs saline

Compound: Nc1nc2ccc(OC(F)(F)F)cc2s1 [riluzole]
- animals in which apnea expression decreased or remained the same: 5 of 7
